Results deposited as PubChem BioAssay AID504793 (Drosophila RNAi Screening Center, 2011)
Assay: 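Whole-genome screen for parts of the DNA damage checkpoint at G2/M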 (primary screen). Cells: Drosophila S2R+ cells. Knock-down reagent: long dsRNA against Drosophila genes, about 0.25 µg dsRNA per well. Time to read-out: 4 days of dsRNA, then 4 hours of drug before read-out. Conditions: doxorubicin 0.5 µM for 4 hours to cause double-strand breaks, in cells also given a low, harmless dose of dsRNA against nbs to sensitise the assay. Read-out: 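Mitotic index as the number of phospho-histone H3-positive cells in each well following doxorubicin, given as raw counts without normalisation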. Reading the numbers: mitotic cells: higher = more cells in mitosis, weaker G2 arrest. Active means: 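Genes are called active only when high mitotic counts were reproduced with independent dsRNAs and mitosis was checked for delay without damage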. Calls: active = confirmed in follow-up tests; inactive = not confirmed.
The screen tested about 23,000 reagents; shown is a random part of those that have a named target and a result. In the full data, 62 (0.27%) were called active. 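Calls come from follow-up tests whose scores are not deposited, so confirmed genes may have low counts here; counts are not normalised per plate.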 Raw values vary from plate to plate and are shown uncorrected. A plus sign joins genes that one reagent is predicted to hit.

The opening 4 entries as a preview:
| mitotic cells, replicate 1 | mitotic cells, replicate 2 | call | predicted target | amplicon |
| --- | --- | --- | --- | --- |
| 5 | – | inactive | LS2 | DRSC04340 |
| 4 | – | inactive | Acox3 | DRSC03251 |
| 2 | – | inactive | Acox3 | DRSC23799 |
| 22 | 8 | inactive | Sry-alpha | DRSC16867 |

The list itself, repeating the preview:
| mitotic cells, replicate 1 | mitotic cells, replicate 2 | call | predicted target | amplicon |
| --- | --- | --- | --- | --- |
| 5 | – | inactive | LS2 | DRSC04340 |
| 4 | – | inactive | Acox3 | DRSC03251 |
| 2 | – | inactive | Acox3 | DRSC23799 |
| 22 | 8 | inactive | Sry-alpha | DRSC16867 |
| 6 | – | inactive | Sry-alpha | DRSC29189 |
| 6 | – | inactive | Lcp65Ad | DRSC11211 |
| 8 | – | inactive | Lcp65Ad | DRSC24630 |
| 3 | – | inactive | Obp58b | DRSC04161 |
| 5 | – | inactive | Nup98-96 | DRSC14209 |
| 12 | – | inactive | Nup98-96 | DRSC14210 |
| 13 | – | inactive | CG42353 + CG42354 | DRSC23154 |
| – | – | inactive | CG42353 + CG42354 | DRSC29165 |
| 16 | – | inactive | CG14237 | DRSC23239 |
| 6 | – | inactive | CG15356 | DRSC00386 |
| 3 | – | inactive | AOX4 | DRSC15337 |
| 4 | – | inactive | AOX4 | DRSC26337 |
| 5 | – | inactive | Vha16-4 + CG15614 | DRSC07321 |
| 4 | – | inactive | CG15237 | DRSC04971 |
| 3 | – | inactive | CG13510 | DRSC04152 |
| 9 | – | inactive | Slbp | DRSC16863 |
| 5 | – | inactive | tll | DRSC17085 |
| 3 | – | inactive | tll | DRSC28584 |
| 6 | – | inactive | sigmar | DRSC04449 |
| 6 | – | inactive | CG12984 | DRSC11693 |
| 8 | – | inactive | Bili | DRSC14405 |
| 13 | – | inactive | EndoU + CR31292 | DRSC26161 |
| 10 | – | inactive | CG10300 | DRSC14225 |
| 7 | – | inactive | CG17032 | DRSC10241 |
| 5 | – | inactive | Chi | DRSC04602 |
| 8 | – | inactive | Chi | DRSC28484 |
| 9 | – | inactive | ND-75 | DRSC18686 |
| 6 | – | inactive | Akt | DRSC14108 |
| 5 | – | inactive | GC1 | DRSC15322 |
| 8 | – | inactive | GC1 | DRSC25627 |
| 11 | – | inactive | Nup133 | DRSC16150 |
| 4 | – | inactive | CG17122 | DRSC10245 |
| 4 | – | inactive | CG17122 | DRSC28648 |
| 5 | – | inactive | Gmppb | DRSC12169 |
| 8 | – | inactive | mRpL21 | DRSC11100 |
| 2 | – | inactive | sstn | DRSC10753 |
| 2 | – | inactive | sstn | DRSC29335 |
| 9 | – | inactive | Cad74A | DRSC10636 |
| 7 | – | inactive | CG8237 | DRSC07119 |
| 5 | – | inactive | CG8237 | DRSC26686 |
| 11 | – | inactive | Prx2 | DRSC20256 |
| 4 | – | inactive | Prx2 | DRSC29996 |
